Data as given in the supplement of paper PMC11659162.
Some of the results follow. The data scatter; read single values as rough.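 The cells are a human neuroglioma line carrying a green fluorescent autophagy reporter.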

Assays:
H4 GFP-LC3 [1] = assay: cell viability (scaled to control) (fraction of control); higher = more viable cells; details: 5 µM
H4 GFP-LC3 [2] = assay: ACBP immunofluorescence intensity (scaled to control) (AU (scaled)); higher = more intracellular ACBP/DBI; details: 5 µM

Row | Compound | cell viability (H4 GFP-LC3 [1]; 6 h) | cell viability (H4 GFP-LC3 [1]; 24 h) | ACBP immunofluorescence intensity (H4 GFP-LC3 [2]; 6 h) | ACBP immunofluorescence intensity (H4 GFP-LC3 [2]; 24 h)
1 | C1CCc2nnnn2CC1 | 0.885 | 1.02 | 0.975 | 0.878
2 | CN(C)Cc1c[nH]c2ccccc12 | 1.01 | 1.13 | 0.902 | 0.556
3 | CN1CC[C@@H]2CN3CCc4cccc(c43)[C@@H]2C1 | 0.85 | 1.06 | 0.872 | 0.513
4 | CC(C)CC1C(=O)N2CCCC2C2(O)OC(NC(=O)C3C=C4c5cccc6[nH]cc(c56)CC4N(C)C3)(C(C)C)C(=O)N12 (centres undefined) | 0.792 | 1.23 | 0.985 | 0.689
5 | CC(C)C[C@H]1C(=O)N2CCC[C@H]2[C@]2(O)O[C@](NC(=O)[C@@H]3C=C4c5cccc6[nH]c(Br)c(c56)C[C@H]4N(C)C3)(C(C)C)C(=O)N12 | 0.827 | 1.04 | 0.868 | 0.683
6 | O=C(O)Cc1cnc[nH]1 | 1.04 | 1.02 | 0.957 | 0.894
7 | O=c1cccc2n1C[C@@H]1CNC[C@H]2C1 | 0.86 | 1.17 | 0.954 | 0.593
8 | CN1CCN(c2ccc3ccccc3n2)CC1 | 0.725 | 1.05 | 0.986 | 0.82
9 | Nc1ccc(CCN2CCN(c3cccc(C(F)(F)F)c3)CC2)cc1 | 0.618 | 0.921 | 0.994 | 0.539
10 | CC(C)[C@H]1C(=O)N2CCC[C@H]2[C@]2(O)O[C@](NC(=O)[C@@H]3C=C4c5cccc6[nH]cc(c56)C[C@H]4N(C)C3)(C(C)C)C(=O)N12 | 0.788 | 1.15 | 0.887 | 0.633
11 | CCNC(=O)[C@H]1O[C@@H](n2cnc3c(N)ncnc32)[C@H](O)[C@@H]1O | 1.04 | 1.07 | 0.97 | 0.807

Random excerpt: 2 compounds from above.
Row | Compound | cell viability (H4 GFP-LC3 [1]; 6 h) | cell viability (H4 GFP-LC3 [1]; 24 h) | ACBP immunofluorescence intensity (H4 GFP-LC3 [2]; 6 h) | ACBP immunofluorescence intensity (H4 GFP-LC3 [2]; 24 h)
8 | CN1CCN(c2ccc3ccccc3n2)CC1 | 0.725 | 1.05 | 0.986 | 0.82
11 | CCNC(=O)[C@H]1O[C@@H](n2cnc3c(N)ncnc32)[C@H](O)[C@@H]1O | 1.04 | 1.07 | 0.97 | 0.807
